Laboratory results from the supplement of paper PMC7024190.
Structures can show the parent of a compound that is named as a salt. The list shows a part of the results. This data set is noisy: repeats of one test often differ as much as different tests do.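 The cells were human embryonic kidney cells carrying a Renilla luciferase gene, driven by the HSV-TK promoter, on a plasmid put in briefly by transfection. This is the first-round screen of about ten thousand compounds, looking for ones that raise reporter output.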

System: HEK 293FT
Assay: log relative Renilla luciferase luminescence (reporter expression vs reference, reference not stated) (log (base not stated)); higher = higher recombinant reporter expression
Conditions: 10 µM; time after transfection 48 h

Row | SMILES | log
1 | CC(C)NCC(O)c1ccc(NS(C)(=O)=O)cc1 (stereo unspecified) [Sotalol Hydrochloride] | -0.034
2 | NC12CC3CC(CC(C3)C1)C2 [Amantadine] | 0.00781
3 | CCN(CC)CCOc1ccc(/C(=C(/Cl)c2ccccc2)c2ccccc2)cc1 [Enclomifene] | 0.161
4 | COc1cc2cc(Oc3ccc4ccc(=O)oc4c3)c(=O)oc2cc1O [Daphnoretin] | 0.191
5 | COc1cc(Br)c(Cc2nccc3cc(OC)c(OC)cc23)cc1OC [Bromopapaverine] | -0.409
6 | CCN(CC)CCOCCOC(=O)C(CC)(CC)c1ccccc1 [Oxeladin Citrate] | -0.0207
7 | CCN[C@H]1C[C@H](C)S(=O)(=O)c2sc(S(N)(=O)=O)cc21 [Dorzolamide Hydrochloride] | 0.0643
8 | CO[C@H]1C=CO[C@@]2(C)Oc3c(C)c(O)c4c(O)c(c(C=O)c(O)c4c3C2=O)NC(=O)C(C)=CC=C[C@H](C)[C@H](O)[C@@H](C)[C@@H](O)[C@@H](C)[C@H](OC(C)=O)[C@@H]1C [3-Formylrifamycin] | -0.0993
9 | CN1CCN(c2cc3c(cc2F)c(=O)c(C(=O)O)cn3CCF)CC1 | -0.169
10 | O=C(O)COc1cc(OCC(=O)O)c2c(=O)cc(-c3ccccc3)oc2c1 [Flavodic acid] | 0.0345
11 | Cc1ncc(CSSCc2cnc(C)c(O)c2CO)c(CO)c1O [Pyritinol] | -0.0904
12 | Nc1ncnc2[nH]c(=O)[nH]c12 [8-Oxoadenine] | -0.133
13 | OC(CNCC(O)C1CCc2cc(F)ccc2O1)C1CCc2cc(F)ccc2O1 (stereo unspecified) [Nebivolol Hydrochloride] | -0.0334
14 | CNC(=C[N+](=O)[O-])NCCSCc1ccc(CN(C)C)o1 [Ranitidine Hydrochloride] | -0.215
15 | COc1cc(Cc2cc(N)nc(N)n2)cc(OC)c1OC [Isotrimethoprim] | 0.129
16 | O=C(/C=C/C=C/c1ccc2c(c1)OCO2)N1CCCCC1 [Piperine] | 0.0937
17 | O=C(N/N=C/c1ccccc1O)c1ccncc1 [Salinazid] | -0.0525
18 | C(#Cc1ccc(C#CCN2CCOCC2)cc1)CN1CCOCC1 [Benzomopine] | 0.0715

Taken from the results shown for reference:
Row | SMILES | log
5 | COc1cc(Br)c(Cc2nccc3cc(OC)c(OC)cc23)cc1OC [Bromopapaverine] | -0.409
6 | CCN(CC)CCOCCOC(=O)C(CC)(CC)c1ccccc1 [Oxeladin Citrate] | -0.0207
7 | CCN[C@H]1C[C@H](C)S(=O)(=O)c2sc(S(N)(=O)=O)cc21 [Dorzolamide Hydrochloride] | 0.0643

Going on with the list.

Row | SMILES | log
19 | O=C(N/N=C/c1ccc(O)cc1)c1ccncc1 [Flavoteben] | 0.103
20 | CC/C=C\CC1=C(C)CCC1=O [Jasmone] | 0.0999
21 | O=c1cc(-c2ccc(O)c(O)c2)oc2cc(O[C@@H]3O[C@H](CO)[C@@H](O)[C@H](O)[C@H]3O)cc(O)c12 [Cynaroside] | 0.115
22 | Cc1c(NC(=O)c2cccnc2)c(=O)n(-c2ccccc2)n1C [Nifenazone] | 0.171
23 | CC(C)=CCC1=C(O)C(=O)c2ccccc2C1=O [Lapachol] | -0.062
24 | CN[C@@H]1[C@H](O[C@H]2[C@H](O[C@H]3[C@H](O)[C@@H](O)[C@H](N=C(N)N)[C@@H](O)[C@@H]3N=C(N)N)O[C@@H](C)[C@]2(O)C=O)O[C@@H](CO)[C@H](O)[C@H]1O [Streptomycin] | -0.204
25 | [O-]c1c[n+](-c2ccccc2)no1 [3-Phenylsydnone] | 0.07
26 | C[C@@H]1C[C@H]2[C@@H]3CCC4=CC(=O)C=C[C@]4(C)[C@@]3(Cl)[C@@H](O)C[C@]2(C)[C@@]1(OC(=O)c1ccco1)C(=O)CCl [Mometasone Furoate] | -0.299
27 | CC1(C)C=Cc2c(O)nc3ccccc3c2O1 [Flindersine] | -0.126
28 | Oc1c(Br)cc(Cl)cc1Sc1cc(Cl)cc(Br)c1O [Galosfen] | 0.0159
29 | CCC(=O)OCC(=O)[C@@]1(O)CC[C@H]2[C@@H]3CCC4=CC(=O)C=C[C@]4(C)[C@H]3[C@@H](O)C[C@@]21C [Prednisolone-21-propionate] | 0.076
30 | OCCc1c[nH]c2ccccc12 [Tryptophol] | 0.0301
31 | Cn1c(=O)c2c(nc(Br)n2C)n(C)c1=O [Xanthobine] | 0.0486
32 | CC(C)=CCn1cnc2ncnc(N)c21 [Triacanthine] | -0.181
33 | O=C1C(=O)N(Cc2ccc(Cl)c(Cl)c2)c2ccccc21 [Apoptosis Activator II] | -0.0682
34 | Cc1nc2c(c3c1[nH]c1ccccc13)C(=O)CC(C)(C)C2 [Carbacetam] | -0.769
35 | Cc1cc(C)nc(NS(=O)(=O)c2ccc(N)cc2)n1 [Sulfadimidine] | 0.191
36 | CCOc1nc2cccc(C(=O)OC(C)OC(=O)OC3CCCCC3)c2n1Cc1ccc(-c2ccccc2-c2nn[nH]n2)cc1 (stereo unspecified) [Candesartan Cilexetil] | 0.0633
